No constants are given. Whether binding was seen depends on the method and setting. Binding seen in cells or lysates may run through a third protein. Some entries that bind do so weakly or less than the wild type.
Assays:
[1] = target: T1, Toll-like receptor 6 (human (endogenous in human amniotic epithelial cells)) (UniProt Q9Y2C9); assay: condition: only cells not stimulated with Ureaplasma; FRET or BRET; acceptor photobleaching FRET on fixed primary human amniotic epithelial cells, not stimulated; TLR2 labelled with Cy3-antibody (donor), other receptors with Cy5-antibody (acceptor)
T1 sequence: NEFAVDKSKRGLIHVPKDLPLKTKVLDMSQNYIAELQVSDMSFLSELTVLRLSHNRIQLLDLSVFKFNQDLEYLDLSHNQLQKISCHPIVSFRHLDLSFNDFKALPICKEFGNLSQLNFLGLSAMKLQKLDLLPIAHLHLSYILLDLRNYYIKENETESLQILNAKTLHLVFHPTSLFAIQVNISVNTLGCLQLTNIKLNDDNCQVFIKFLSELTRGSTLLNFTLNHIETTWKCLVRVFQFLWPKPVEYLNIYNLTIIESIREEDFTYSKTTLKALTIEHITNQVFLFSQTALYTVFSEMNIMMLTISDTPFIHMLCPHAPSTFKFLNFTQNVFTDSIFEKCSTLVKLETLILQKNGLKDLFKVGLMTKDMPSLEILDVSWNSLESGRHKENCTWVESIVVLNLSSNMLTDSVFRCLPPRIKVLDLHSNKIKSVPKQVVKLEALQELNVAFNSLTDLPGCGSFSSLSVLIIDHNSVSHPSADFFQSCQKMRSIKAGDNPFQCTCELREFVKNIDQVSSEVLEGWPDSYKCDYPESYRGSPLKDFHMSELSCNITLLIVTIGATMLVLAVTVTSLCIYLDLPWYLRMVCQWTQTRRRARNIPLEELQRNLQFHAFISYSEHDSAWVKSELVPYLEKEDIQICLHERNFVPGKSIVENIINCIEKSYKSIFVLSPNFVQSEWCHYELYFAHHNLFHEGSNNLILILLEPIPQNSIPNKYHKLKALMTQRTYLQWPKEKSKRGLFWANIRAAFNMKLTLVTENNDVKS

Chains of the proteins cited; added tags and fusions are not shown. Lines headed by an entry give the natural chain unless they say otherwise; changes in a name come on top. Residues count along the entry.
UniProt O00206, residues 24-839: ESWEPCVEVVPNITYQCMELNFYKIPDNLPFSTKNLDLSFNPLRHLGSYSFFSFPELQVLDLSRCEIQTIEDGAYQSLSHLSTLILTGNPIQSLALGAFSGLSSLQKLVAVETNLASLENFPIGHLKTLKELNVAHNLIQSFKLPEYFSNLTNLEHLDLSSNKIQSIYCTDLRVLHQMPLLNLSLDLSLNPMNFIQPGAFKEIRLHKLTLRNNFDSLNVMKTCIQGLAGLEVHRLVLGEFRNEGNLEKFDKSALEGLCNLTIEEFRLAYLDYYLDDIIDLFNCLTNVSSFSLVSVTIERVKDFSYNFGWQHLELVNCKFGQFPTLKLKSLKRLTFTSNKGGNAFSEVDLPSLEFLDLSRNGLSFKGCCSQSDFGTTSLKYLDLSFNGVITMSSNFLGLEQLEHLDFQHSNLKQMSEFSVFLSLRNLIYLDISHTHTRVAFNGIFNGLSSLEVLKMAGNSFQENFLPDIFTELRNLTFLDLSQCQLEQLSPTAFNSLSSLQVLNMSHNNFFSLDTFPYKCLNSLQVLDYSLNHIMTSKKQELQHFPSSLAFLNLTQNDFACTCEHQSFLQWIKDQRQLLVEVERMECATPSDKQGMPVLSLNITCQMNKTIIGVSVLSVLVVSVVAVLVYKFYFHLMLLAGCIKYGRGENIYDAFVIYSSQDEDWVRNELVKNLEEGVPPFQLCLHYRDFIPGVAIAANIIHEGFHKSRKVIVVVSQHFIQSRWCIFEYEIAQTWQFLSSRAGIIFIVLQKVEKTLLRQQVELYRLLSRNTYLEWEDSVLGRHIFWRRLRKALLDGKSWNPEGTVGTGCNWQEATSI
UniProt O60603: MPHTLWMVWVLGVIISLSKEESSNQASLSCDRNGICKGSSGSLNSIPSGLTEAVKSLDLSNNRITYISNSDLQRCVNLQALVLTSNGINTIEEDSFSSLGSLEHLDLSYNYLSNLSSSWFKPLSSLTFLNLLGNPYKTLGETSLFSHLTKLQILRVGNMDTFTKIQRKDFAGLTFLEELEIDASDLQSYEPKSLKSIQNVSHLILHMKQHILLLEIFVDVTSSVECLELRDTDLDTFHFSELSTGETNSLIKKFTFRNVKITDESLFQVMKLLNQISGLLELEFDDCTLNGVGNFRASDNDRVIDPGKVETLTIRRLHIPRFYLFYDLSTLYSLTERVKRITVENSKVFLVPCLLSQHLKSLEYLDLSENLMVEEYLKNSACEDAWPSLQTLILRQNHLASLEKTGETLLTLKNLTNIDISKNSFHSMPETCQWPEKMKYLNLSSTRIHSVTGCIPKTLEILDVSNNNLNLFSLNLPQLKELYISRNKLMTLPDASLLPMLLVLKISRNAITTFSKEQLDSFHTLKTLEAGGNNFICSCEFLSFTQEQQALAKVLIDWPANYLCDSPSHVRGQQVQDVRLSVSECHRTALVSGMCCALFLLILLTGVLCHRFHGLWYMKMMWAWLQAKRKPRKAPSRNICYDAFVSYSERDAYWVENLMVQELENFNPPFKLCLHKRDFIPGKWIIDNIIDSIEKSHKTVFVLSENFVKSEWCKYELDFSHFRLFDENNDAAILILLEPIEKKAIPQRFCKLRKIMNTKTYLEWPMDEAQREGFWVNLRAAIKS

[2] = target: Toll-like receptor 4 (human (endogenous in human amniotic epithelial cells)) (UniProt O00206); assay: as above
[3] = target: Toll-like receptor 4 (human (endogenous in human amniotic epithelial cells)) (UniProt O00206); assay: condition: only cells stimulated with MBA (1 µg/ml); FRET or BRET; acceptor photobleaching FRET on fixed primary human amniotic epithelial cells stimulated 1 h with MBA (1 µg/ml); TLR2 Cy3-antibody (donor), other receptors Cy5-antibody (acceptor)
[4] = target: Toll-like receptor 4 (human (endogenous in human amniotic epithelial cells)) (UniProt O00206); assay: FRET or BRET; acceptor photobleaching FRET on fixed primary human amniotic epithelial cells stimulated 1 h with Ureaplasma parvum SV3, SV14 or U. urealyticum SV2 (1x10^8 bacteria/ml to 1x10^7 cells/ml); TLR2 Cy3-antibody (donor), other receptors Cy5-antibody (acceptor)

binding [1]: no binding
binding [2]: no binding
binding [3]: no binding
binding [4]: binds weakly
Substance: Toll-like receptor 2 (from UniProt O60603 21-784)
